For at least one compound, name, drawing or mass did not settle the structure.
Test system: Freshly isolated mouse hepatocytes
Test: Hepatocyte fatty acid metabolism, time course with alkyne or natural fatty acids
Format: cell-based
Conditions: incubation for 10-120 min; mass spectrometry
Method: Alkyne lipid precursors are supplemented to cell culture where they become incorporated into cellular lipids, e.g. into phosphatidylcholine (PC). These are extracted and reacted with the fluorogenic dye 3-azido-7-hydroxycoumarin in the presence of copper(I). […] (a) Alkyne-Bodipy at concentrations as indicated was reacted with either 60 µM 3-azido-7-hydroxycoumarin and 2mM Cu(I)BF4 (+) or incubated in ethanol for 3h at 42°C (-). The samples were separated by TLC using hexane/ethyl acetate 1/1 as the mobile phase. […] (c) Plot of the integrated fluorescence intensity of lane 6 of panel b (left) and from the corresponding one second exposure before base treatment. […] The cholesterol ester of alkyne-oleate at the indicated concentrations was subjected to detection reaction, TLC separation and fluorescence imaging using the standard protocol. […] (b) Quantification of integrated fluorescence of panel a. […] Signals were quantified either by scraping, extraction and scintillation counting (panel b, ^3H-oleate) or by integration of signals form the fluorescence image (panel b, alkyne-oleate). […] Lipids extracts were dried and subjected to detection reaction, TLC separation and fluorescence imaging using the standard protocol. […] (b) Quantification of the signals in panel a. […]

CCCCCCCC/C=C\CCCCCCCC(=O)O [oleate]
influence on species composition of PC, PA, PE, and PG: did not influence

CCCCCCCCCCCCCCCC(=O)O [palmitate]
influence on species composition of PC, PA, PE, and PG: did not influence

From patent EP2680005A1, “Lipid analysis” (Rheinische Friedrich-Wilhelms-Universität Bonn, priority 2012, dated 2014)
